Results are given in words; binding and its absence hold for the method and conditions named. In cells and extracts the contact can be indirect. Binding calls can cover weak binding; strength is not graded here. Blank lines part the entries; values can stand above or below the molecule they belong to.
Columns and labels:
[1] = molecular target: T1, Zonula occludens 2 (ZO-2) (dog (endogenous in MDCK)) (UniProt Q95168); experiment: co-IP; immunoprecipitation of ZO-2 from sparse MDCK cells, Western blot of the partners; endogenous proteins
T1 sequence: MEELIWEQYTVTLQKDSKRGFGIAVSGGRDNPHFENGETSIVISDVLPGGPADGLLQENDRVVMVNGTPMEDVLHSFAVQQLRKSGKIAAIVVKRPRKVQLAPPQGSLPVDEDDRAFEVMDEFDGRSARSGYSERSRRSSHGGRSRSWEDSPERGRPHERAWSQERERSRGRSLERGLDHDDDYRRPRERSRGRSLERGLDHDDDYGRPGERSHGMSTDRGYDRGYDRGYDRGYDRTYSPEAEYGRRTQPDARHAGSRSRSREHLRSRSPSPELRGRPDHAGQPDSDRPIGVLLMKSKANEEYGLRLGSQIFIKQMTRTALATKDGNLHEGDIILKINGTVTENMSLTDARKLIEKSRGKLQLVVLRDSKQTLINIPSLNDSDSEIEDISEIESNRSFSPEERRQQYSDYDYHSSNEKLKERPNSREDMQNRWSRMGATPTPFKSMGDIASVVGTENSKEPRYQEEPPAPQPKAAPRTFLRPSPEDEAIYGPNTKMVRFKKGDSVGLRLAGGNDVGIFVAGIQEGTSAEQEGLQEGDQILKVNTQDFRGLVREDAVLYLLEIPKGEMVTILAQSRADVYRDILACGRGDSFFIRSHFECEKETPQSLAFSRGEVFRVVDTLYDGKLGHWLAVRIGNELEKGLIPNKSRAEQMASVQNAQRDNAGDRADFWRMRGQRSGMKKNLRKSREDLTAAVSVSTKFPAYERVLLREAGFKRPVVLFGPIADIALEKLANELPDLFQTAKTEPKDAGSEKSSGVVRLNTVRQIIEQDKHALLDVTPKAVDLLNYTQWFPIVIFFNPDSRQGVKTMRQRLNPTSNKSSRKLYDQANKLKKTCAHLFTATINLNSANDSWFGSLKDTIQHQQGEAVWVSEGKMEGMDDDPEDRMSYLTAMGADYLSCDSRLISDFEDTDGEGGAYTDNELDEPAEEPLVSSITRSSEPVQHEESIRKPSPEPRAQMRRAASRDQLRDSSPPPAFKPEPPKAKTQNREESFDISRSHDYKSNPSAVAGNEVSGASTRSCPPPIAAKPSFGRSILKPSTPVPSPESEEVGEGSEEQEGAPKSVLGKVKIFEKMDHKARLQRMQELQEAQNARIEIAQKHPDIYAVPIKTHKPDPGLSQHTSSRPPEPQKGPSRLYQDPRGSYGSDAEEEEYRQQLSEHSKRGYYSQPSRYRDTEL

[2] = molecular target: SUN-1 (dog (endogenous in MDCK)); experiment: co-IP; immunoprecipitation of SUN-1 or lamin B1 from sparse MDCK cells, Western blot of ZO-2; endogenous proteins

- binding [1]: no binding
Molecule: nesprin-3 (dog (endogenous in MDCK))

- binding [1]: no binding
Molecule: nesprin-4 (dog (endogenous in MDCK))

- binding [1]: no binding
Molecule: lamin A (dog (endogenous in MDCK))

- binding [1]: no binding
Molecule: lamin C (dog (endogenous in MDCK))

- binding [1]: binds
Molecule: SUN-1 (dog (endogenous in MDCK))

- binding [2]: binds
B1: Zonula occludens 2 (ZO-2) (protein, UniProt Q95168 1-1174)
chain: T1 sequence

— PMC8534263
